Assay [1] deals with T1, Myc-tagged ECAT15-2 (mouse) (UniProt Q9CWH0).
T1 sequence: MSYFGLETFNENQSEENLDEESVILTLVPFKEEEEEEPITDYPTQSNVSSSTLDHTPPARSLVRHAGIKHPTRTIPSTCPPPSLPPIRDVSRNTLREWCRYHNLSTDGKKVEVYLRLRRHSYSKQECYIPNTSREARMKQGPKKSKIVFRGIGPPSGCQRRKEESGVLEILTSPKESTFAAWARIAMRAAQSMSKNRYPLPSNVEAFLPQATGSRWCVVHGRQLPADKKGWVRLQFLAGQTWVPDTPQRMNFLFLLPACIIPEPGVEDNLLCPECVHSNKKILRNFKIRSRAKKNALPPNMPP
The experiment in a line: co-immunoprecipitation and Western blot, FIG. 5 left. Background: A western blot detects proteins with antibodies after separation by electrophoresis.

Assay [2] deals with T1, Myc-tagged ECAT15-2 (mouse). The experiment in a line: co-immunoprecipitation with anti-Myc (9E10) from transfected MG1.19 ES cells, Western blot.
Assay [3] concerns the target T2, Myc-tagged ECAT15-1 (mouse) (UniProt Q8CCG4).
T2 sequence: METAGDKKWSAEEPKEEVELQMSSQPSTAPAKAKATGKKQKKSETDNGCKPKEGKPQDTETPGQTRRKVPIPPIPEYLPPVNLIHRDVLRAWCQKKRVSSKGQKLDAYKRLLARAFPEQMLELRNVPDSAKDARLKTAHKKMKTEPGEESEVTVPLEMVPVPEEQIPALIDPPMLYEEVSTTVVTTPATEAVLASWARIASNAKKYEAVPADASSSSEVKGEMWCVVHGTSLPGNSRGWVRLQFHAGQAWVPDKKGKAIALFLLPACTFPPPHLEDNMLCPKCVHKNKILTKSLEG
The description is as above.

Assay [4] has as its target T2, Myc-tagged ECAT15-1 (mouse). The experiment in a line: co-immunoprecipitation and Western blot, FIG. 5 middle.
Assay [5] concerns the target T3, mouse ECAT15-2 (endogenous, MG1.19 ES cells) (mouse) (UniProt Q9CWH0).
T3 sequence: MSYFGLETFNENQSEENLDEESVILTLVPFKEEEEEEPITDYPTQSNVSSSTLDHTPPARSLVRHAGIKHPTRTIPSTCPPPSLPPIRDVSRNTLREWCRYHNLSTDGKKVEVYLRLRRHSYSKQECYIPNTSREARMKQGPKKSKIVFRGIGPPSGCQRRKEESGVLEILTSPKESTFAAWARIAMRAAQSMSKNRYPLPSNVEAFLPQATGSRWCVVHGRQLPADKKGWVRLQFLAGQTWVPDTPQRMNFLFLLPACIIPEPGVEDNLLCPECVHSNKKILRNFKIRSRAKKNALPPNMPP
In words: co-immunoprecipitation of endogenous proteins with anti-ECAT15-1 and anti-ECAT15-2 antibodies, FIG. 6.

Assay [6] addresses T3, mouse ECAT15-2 (endogenous, MG1.19 ES cells) (mouse). The experiment in a line: co-immunoprecipitation of endogenous proteins from MG1.19 ES cells with anti-ECAT15-2 serum, Western blot.
Assay [7] has as its target T1, Myc-tagged ECAT15-2 (mouse). In words: co-immunoprecipitation and Western blot, FIG. 5 right.
For assay [8], the target named is T4, mouse ECAT15-1 (endogenous, MG1.19 ES cells) (mouse) (UniProt Q8CCG4).
T4 sequence: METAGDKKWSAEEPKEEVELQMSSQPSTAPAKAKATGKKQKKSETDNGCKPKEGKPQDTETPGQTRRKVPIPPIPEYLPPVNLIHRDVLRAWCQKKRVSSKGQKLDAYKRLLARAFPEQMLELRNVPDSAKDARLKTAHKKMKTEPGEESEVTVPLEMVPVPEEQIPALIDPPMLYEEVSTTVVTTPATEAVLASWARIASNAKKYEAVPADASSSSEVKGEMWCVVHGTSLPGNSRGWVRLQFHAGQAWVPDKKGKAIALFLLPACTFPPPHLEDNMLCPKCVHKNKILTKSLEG
The experiment in a line: co-immunoprecipitation of endogenous proteins from MG1.19 ES cells with anti-ECAT15-1 serum, Western blot.

Results are given in words; binding and its absence hold for the method and conditions named. Binding seen in cells or lysates may run through a third protein. Some results given as binding are weak or reduced against the parent protein; the word gives no strength. For part of these data: Tags and fused reporters may be left off the sequences shown.

B1: Flag-tagged ECAT15-1 (protein, not shown: small tags and cut ends)
chain: METAGDKKWSAEEPKEEVELQMSSQPSTAPAKAKATGKKQKKSETDNGCKPKEGKPQDTETPGQTRRKVPIPPIPEYLPPVNLIHRDVLRAWCQKKRVSSKGQKLDAYKRLLARAFPEQMLELRNVPDSAKDARLKTAHKKMKTEPGEESEVTVPLEMVPVPEEQIPALIDPPMLYEEVSTTVVTTPATEAVLASWARIASNAKKYEAVPADASSSSEVKGEMWCVVHGTSLPGNSRGWVRLQFHAGQAWVPDKKGKAIALFLLPACTFPPPHLEDNMLCPKCVHKNKILTKSLEG
For the molecule B1, the binding result in assay [1], in assay [2], in assay [3] and in assay [4] was “binds” each time.

B2: mouse ECAT15-1 (endogenous, MG1.19 ES cells) (protein)
chain: METAGDKKWSAEEPKEEVELQMSSQPSTAPAKAKATGKKQKKSETDNGCKPKEGKPQDTETPGQTRRKVPIPPIPEYLPPVNLIHRDVLRAWCQKKRVSSKGQKLDAYKRLLARAFPEQMLELRNVPDSAKDARLKTAHKKMKTEPGEESEVTVPLEMVPVPEEQIPALIDPPMLYEEVSTTVVTTPATEAVLASWARIASNAKKYEAVPADASSSSEVKGEMWCVVHGTSLPGNSRGWVRLQFHAGQAWVPDKKGKAIALFLLPACTFPPPHLEDNMLCPKCVHKNKILTKSLEG
For B2, the binding result in assay [5] and in assay [6] was “binds” each time.

B3: Flag-tagged ECAT15-2 (protein, not shown: small tags and cut ends)
chain: MSYFGLETFNENQSEENLDEESVILTLVPFKEEEEEEPITDYPTQSNVSSSTLDHTPPARSLVRHAGIKHPTRTIPSTCPPPSLPPIRDVSRNTLREWCRYHNLSTDGKKVEVYLRLRRHSYSKQECYIPNTSREARMKQGPKKSKIVFRGIGPPSGCQRRKEESGVLEILTSPKESTFAAWARIAMRAAQSMSKNRYPLPSNVEAFLPQATGSRWCVVHGRQLPADKKGWVRLQFLAGQTWVPDTPQRMNFLFLLPACIIPEPGVEDNLLCPECVHSNKKILRNFKIRSRAKKNALPPNMPP
On to B3, for which the binding result in assay [2] and in assay [7] was “binds” throughout.

B4: mouse ECAT15-2 (endogenous, MG1.19 ES cells) (protein)
chain: MSYFGLETFNENQSEENLDEESVILTLVPFKEEEEEEPITDYPTQSNVSSSTLDHTPPARSLVRHAGIKHPTRTIPSTCPPPSLPPIRDVSRNTLREWCRYHNLSTDGKKVEVYLRLRRHSYSKQECYIPNTSREARMKQGPKKSKIVFRGIGPPSGCQRRKEESGVLEILTSPKESTFAAWARIAMRAAQSMSKNRYPLPSNVEAFLPQATGSRWCVVHGRQLPADKKGWVRLQFLAGQTWVPDTPQRMNFLFLLPACIIPEPGVEDNLLCPECVHSNKKILRNFKIRSRAKKNALPPNMPP
Regarding B4, the binding result in assay [8] is on record as “binds”.
